Assay results published in PMC3900708.
These are yes or no findings as the source states them, for the method shown. Some results given as binding are weak or reduced against the parent protein; the word gives no strength. Where a sequence is shown, tags or fusion partners need not be part of it.

Chains of the proteins cited; added tags and fusions are not shown. Lines headed by an entry give the natural chain unless they say otherwise; changes in a name come on top.
UniProt P20339: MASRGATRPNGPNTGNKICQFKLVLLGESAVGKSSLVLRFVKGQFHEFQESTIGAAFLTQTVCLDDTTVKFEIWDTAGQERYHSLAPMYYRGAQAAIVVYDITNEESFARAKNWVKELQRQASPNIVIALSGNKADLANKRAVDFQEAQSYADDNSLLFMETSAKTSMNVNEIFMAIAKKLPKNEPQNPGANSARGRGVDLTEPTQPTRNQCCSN

How the values were obtained:
Assay in all cases: pull-down; GST-Rab5 (Q79L) incubated with purified His-vinculin deletion mutants, His-pull-down; beads assayed by western blot; both purified
His-vin258-880 = target: T1, His-vin258-880 (UniProt P12003)
T1 sequence: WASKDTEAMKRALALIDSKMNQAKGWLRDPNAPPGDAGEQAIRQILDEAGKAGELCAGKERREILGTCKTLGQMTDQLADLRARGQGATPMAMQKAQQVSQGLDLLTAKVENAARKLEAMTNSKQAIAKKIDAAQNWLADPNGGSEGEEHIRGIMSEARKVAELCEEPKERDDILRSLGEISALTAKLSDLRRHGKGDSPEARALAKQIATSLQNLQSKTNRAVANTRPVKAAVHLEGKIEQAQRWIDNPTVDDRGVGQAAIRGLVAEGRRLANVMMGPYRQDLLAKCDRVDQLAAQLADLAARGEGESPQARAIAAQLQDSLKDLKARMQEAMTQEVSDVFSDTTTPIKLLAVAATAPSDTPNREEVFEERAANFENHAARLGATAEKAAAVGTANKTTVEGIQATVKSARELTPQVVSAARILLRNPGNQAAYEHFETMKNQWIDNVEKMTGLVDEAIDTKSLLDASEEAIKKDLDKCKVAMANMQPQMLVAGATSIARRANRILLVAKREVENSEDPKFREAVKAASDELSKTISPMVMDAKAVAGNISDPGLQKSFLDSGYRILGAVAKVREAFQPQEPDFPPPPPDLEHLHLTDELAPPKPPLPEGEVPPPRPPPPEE

His-vin1-258 = target: T2, His-vin1-258 (UniProt P12003)
T2 sequence: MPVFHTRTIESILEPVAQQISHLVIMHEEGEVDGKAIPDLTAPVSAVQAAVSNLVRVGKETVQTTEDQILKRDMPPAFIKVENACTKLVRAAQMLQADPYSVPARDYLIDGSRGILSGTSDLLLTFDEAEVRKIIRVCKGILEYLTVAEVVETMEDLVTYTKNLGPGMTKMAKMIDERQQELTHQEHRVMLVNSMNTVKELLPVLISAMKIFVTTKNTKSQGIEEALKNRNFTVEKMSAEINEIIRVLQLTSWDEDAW

His-vin1-880 = target: T3, His-vin1-880 (UniProt P12003)
T3 sequence: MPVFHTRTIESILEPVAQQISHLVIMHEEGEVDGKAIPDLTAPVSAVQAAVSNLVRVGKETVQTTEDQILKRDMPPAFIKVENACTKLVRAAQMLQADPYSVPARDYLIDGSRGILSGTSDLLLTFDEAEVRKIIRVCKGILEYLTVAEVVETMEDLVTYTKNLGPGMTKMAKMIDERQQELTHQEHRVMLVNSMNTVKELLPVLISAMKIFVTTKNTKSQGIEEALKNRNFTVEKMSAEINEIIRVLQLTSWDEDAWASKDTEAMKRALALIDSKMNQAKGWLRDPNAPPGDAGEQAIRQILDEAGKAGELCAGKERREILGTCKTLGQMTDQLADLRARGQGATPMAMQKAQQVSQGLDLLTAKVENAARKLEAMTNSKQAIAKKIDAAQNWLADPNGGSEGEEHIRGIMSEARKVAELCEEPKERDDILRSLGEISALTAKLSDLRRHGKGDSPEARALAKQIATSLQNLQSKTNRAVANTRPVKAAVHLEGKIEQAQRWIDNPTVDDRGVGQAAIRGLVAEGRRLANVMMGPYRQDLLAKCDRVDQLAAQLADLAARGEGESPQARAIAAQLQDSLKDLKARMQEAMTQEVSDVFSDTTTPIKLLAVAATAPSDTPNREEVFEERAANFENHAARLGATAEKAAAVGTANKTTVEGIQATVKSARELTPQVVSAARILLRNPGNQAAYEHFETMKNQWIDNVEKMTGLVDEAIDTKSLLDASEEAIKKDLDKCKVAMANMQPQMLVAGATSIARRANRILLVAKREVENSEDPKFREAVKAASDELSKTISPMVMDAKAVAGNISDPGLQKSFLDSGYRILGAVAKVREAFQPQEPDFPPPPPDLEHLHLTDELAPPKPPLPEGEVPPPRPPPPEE

With “GST-Rab5 (Q79L) (from UniProt P20339 1-215)” the binding (His-vin258-880) was “no binding”, the binding (His-vin1-258) was “binds” and the binding (His-vin1-880) was “binds”.
